From PMC8795745, “A GSH/CB Dual-Controlled Self-Assembled Nanomedicine for High-Efficacy Doxorubicin-Resistant Breast Cancer Therapy” (Frontiers in Pharmacology, 2022)

System: MCF-7 cells
Test: cells
Assay type: cell-based
Conditions: Homo sapiens, MCF7; MTT, mean ± SD, n=3
Method: MTT assay was performed as described previously.^[6^] Briefly, the cells (5 × 10^3 cells/well) were seeded in 96-well culture plates (Coring) and incubated overnight. Then cells were exposed to various concentrations of cyclic-1a and incubated at 37 °C for 72 h. After that, MTT stock solution (0.5 mg/mL) was added into each well and cultured for additional 4 h. The MTT treated cells were […] with 150 μL of DMSO. The absorbance in each individual well was measured by using a microplate spectrophotometer at […] (SpectraMax M2e, Molecular Devices Inc. USA).

IC50: 5.07 ± 0.31 µM
Structure (SMILES): COc1cccc2c1C(=O)c1c(O)c3c(c(O)c1C2=O)C[C@@](O)(C(=O)CO)C[C@@H]3O[C@H]1C[C@H](N)[C@H](O)[C@H](C)O1 [doxorubicin, Doxorubicin]
